This is an account of results in ChEMBL document CHEMBL5674883, “The Heterochromatin Landscape in Migrating Cells and the Importance of H3K27me3 for Associated Transcriptome Alterations” (Cells, 2018).

The chains behind the UniProt entries cited, without tags or fusion partners.
UniProt Q61188, whole entry: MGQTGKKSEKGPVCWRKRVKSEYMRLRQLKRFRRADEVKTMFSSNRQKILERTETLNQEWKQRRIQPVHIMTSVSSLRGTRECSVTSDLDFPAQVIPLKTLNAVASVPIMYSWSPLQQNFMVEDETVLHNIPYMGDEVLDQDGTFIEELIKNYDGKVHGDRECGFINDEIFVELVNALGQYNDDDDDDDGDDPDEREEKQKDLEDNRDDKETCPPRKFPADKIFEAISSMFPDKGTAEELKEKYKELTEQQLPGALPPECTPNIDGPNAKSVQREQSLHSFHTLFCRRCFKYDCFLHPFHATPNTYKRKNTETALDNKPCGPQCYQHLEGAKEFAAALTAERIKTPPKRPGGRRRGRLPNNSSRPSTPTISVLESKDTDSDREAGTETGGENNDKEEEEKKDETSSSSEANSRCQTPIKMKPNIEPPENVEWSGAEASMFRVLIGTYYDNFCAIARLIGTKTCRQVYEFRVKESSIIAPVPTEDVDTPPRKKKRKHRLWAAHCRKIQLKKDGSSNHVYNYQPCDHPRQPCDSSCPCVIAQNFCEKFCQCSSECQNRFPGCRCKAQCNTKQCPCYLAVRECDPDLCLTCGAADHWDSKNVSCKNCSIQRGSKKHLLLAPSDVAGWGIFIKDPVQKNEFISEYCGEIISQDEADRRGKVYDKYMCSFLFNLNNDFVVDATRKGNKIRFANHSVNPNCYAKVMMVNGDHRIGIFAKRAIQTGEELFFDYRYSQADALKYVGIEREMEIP

Holding throughout (type): cell-based
Assay [1] concerns the target T1, RNA polymerase II (Mus musculus) (UniProt P08775+Q8CFI7+P97760+A0A3Q4L2S8+Q80UW8+P61219+P62488+Q923G2+P60898+O08740+Q63871+P62876). In words: Inhibition of RNA polymerase II in mouse B16-F1 migrating cells assessed as fold change in Cdk15-RNA stability at 0.1 mM measured by ChIP-seq analysis relative to control cells.
In assay [2] the target is T1, RNA polymerase II (Mus musculus). The assay is described as follows: Inhibition of RNA polymerase II in mouse B16-F1 migrating cells assessed as fold change in E2f3-RNA stability at 0.1 mM measured by ChIP-seq analysis relative to control cells.
Assay [3] has the same target. The assay is described as follows: Inhibition of RNA polymerase II in mouse B16-F1 migrating cells assessed as fold change in Atp2c1-RNA stability at 0.1 mM measured by ChIP-seq analysis relative to control cells.
Assay [4] has the same target. The assay is described as follows: Inhibition of RNA polymerase II in mouse B16-F1 migrating cells assessed as fold change in Lrrcc1-RNA stability at 0.1 mM measured by ChIP-seq analysis relative to control cells.
For assay [5] the target is unchanged. The assay is described as follows: Inhibition of RNA polymerase II in mouse B16-F1 migrating cells assessed as fold change in Eif5b-RNA stability at 0.1 mM measured by ChIP-seq analysis relative to control cells.
For assay [6] the target is unchanged. The assay is described as follows: Inhibition of RNA polymerase II in mouse B16-F1 migrating cells assessed as fold change in Rtl8a-RNA stability at 0.1 mM measured by ChIP-seq analysis relative to control cells.
For assay [7] the target is unchanged. The assay is described as follows: Inhibition of RNA polymerase II in mouse B16-F1 migrating cells assessed as fold change in Usp15-RNA stability at 0.1 mM measured by ChIP-seq analysis relative to control cells.
Assay [8] has the same target. The assay is described as follows: Inhibition of RNA polymerase II in mouse B16-F1 migrating cells assessed as fold change in Pus10-RNA stability at 0.1 mM measured by ChIP-seq analysis relative to control cells.
Assay [9] has the same target. In words: Inhibition of RNA polymerase II in mouse B16-F1 migrating cells assessed as fold change in Ephx1-RNA stability at 0.1 mM measured by ChIP-seq analysis relative to control cells.
The target is the same in assay [10]. The assay is described as follows: Inhibition of RNA polymerase II in mouse B16-F1 migrating cells assessed as fold change in Mbd3-RNA stability at 0.1 mM measured by ChIP-seq analysis relative to control cells.
Assay [11] shares this target. In words: Inhibition of RNA polymerase II in mouse B16-F1 migrating cells assessed as fold change in Rpph1-RNA stability at 0.1 mM measured by ChIP-seq analysis relative to control cells.
For assay [12] the target is unchanged. In words: Inhibition of RNA polymerase II in mouse B16-F1 migrating cells assessed as fold change in Mpp7-RNA stability at 0.1 mM measured by ChIP-seq analysis relative to control cells.
For assay [13] the target is unchanged. In words: Inhibition of RNA polymerase II in mouse B16-F1 migrating cells assessed as fold change in Pcnp-RNA stability at 0.1 mM measured by ChIP-seq analysis relative to control cells.
The target is the same in assay [14]. In words: Inhibition of RNA polymerase II in mouse B16-F1 migrating cells assessed as fold change in Fbxo5-RNA stability at 0.1 mM measured by ChIP-seq analysis relative to control cells.
For assay [15] the target is unchanged. In words: Inhibition of RNA polymerase II in mouse B16-F1 migrating cells assessed as fold change in Ift27-RNA stability at 0.1 mM measured by ChIP-seq analysis relative to control cells.
Assay [16] has the same target. In words: Inhibition of RNA polymerase II in mouse B16-F1 migrating cells assessed as fold change in Matr3-RNA stability at 0.1 mM measured by ChIP-seq analysis relative to control cells.
Assay [17] shares this target. The assay is described as follows: Inhibition of RNA polymerase II in mouse B16-F1 migrating cells assessed as fold change in Eif5a2-RNA stability at 0.1 mM measured by ChIP-seq analysis relative to control cells.
The target is the same in assay [18]. In words: Inhibition of RNA polymerase II in mouse B16-F1 migrating cells assessed as fold change in Ate1-RNA stability at 0.1 mM measured by ChIP-seq analysis relative to control cells.
The target of assay [19] is Histone-lysine N-methyltransferase EZH2 (Mus musculus) (UniProt Q61188). In words: Inhibition of EZH2 in mouse B16-F1 migrating cells assessed as fold change in H3K27me3-independent regulated Irak2-mRNA expression at 3 uM measured by ChIP-seq analysis relative to control cells.
Assay [20] shares this target. The assay is described as follows: Inhibition of EZH2 in mouse B16-F1 migrating cells assessed as fold change in H3K27me3-independent regulated Pak3-mRNA expression at 3 uM measured by ChIP-seq analysis relative to control cells.
For assay [21] the target is unchanged. In words: Inhibition of EZH2 in mouse B16-F1 migrating cells assessed as fold change in H3K27me3-independent regulated Spsb1-mRNA expression at 3 uM measured by ChIP-seq analysis relative to control cells.
Assay [22] shares this target. The assay is described as follows: Inhibition of EZH2 in mouse B16-F1 migrating cells assessed as fold change in H3K27me3-buffered regulated Bbc3-mRNA expression at 3 uM measured by ChIP-seq analysis relative to control cells.
Assay [23] has the same target. In words: Inhibition of EZH2 in mouse B16-F1 migrating cells assessed as fold change in H3K27me3-independent regulated Kdm3a-mRNA expression at 3 uM measured by ChIP-seq analysis relative to control cells.
Assay [24] has the same target. In words: Inhibition of EZH2 in mouse B16-F1 migrating cells assessed as fold change in H3K27me3-buffered regulated Rnaset2b-mRNA expression at 3 uM measured by ChIP-seq analysis relative to control cells.
Assay [25] shares this target. The assay is described as follows: Inhibition of EZH2 in mouse B16-F1 migrating cells assessed as fold change in H3K27me3-buffered regulated Tnfaip8-mRNA expression at 3 uM measured by ChIP-seq analysis relative to control cells.
Assay [26] shares this target. The assay is described as follows: Inhibition of EZH2 in mouse B16-F1 migrating cells assessed as fold change in H3K27me3-buffered regulated Peg10-mRNA expression at 3 uM measured by ChIP-seq analysis relative to control cells.
Assay [27] shares this target. In words: Inhibition of EZH2 in mouse B16-F1 migrating cells assessed as fold change in H3K27me3-buffered regulated Kirrel-mRNA expression at 3 uM measured by ChIP-seq analysis relative to control cells.
Assay [28] has the same target. The assay is described as follows: Inhibition of EZH2 in mouse B16-F1 migrating cells assessed as fold change in H3K27me3-buffered regulated Cyp26b1-mRNA expression at 3 uM measured by ChIP-seq analysis relative to control cells.
Assay [29] shares this target. In words: Inhibition of EZH2 in mouse B16-F1 migrating cells assessed as fold change in H3K27me3-buffered regulated Rras-mRNA expression at 3 uM measured by ChIP-seq analysis relative to control cells.
Assay [30] shares this target. In words: Inhibition of EZH2 in mouse B16-F1 migrating cells assessed as fold change in H3K27me3-buffered regulated Gm16353-mRNA expression at 3 uM measured by ChIP-seq analysis relative to control cells.

The source gives many values for each of these; only a part stands here.

Take `OC[C@H]1O[C@@H](n2cnc3cc(Cl)c(Cl)cc32)[C@H](O)[C@@H]1O`: the log2FC is -0.48 in assay [1]; -0.52 in assay [2]; -0.46 in assay [3]; -0.85 in assay [4]; -0.57 in assay [5]; 0.63 in [6]. Further, the log2FC is -0.77 in [7]; -0.54 in [8]; 0.45 in [9]; 0.53 in assay [10]; 1.58 in [11]; -0.69 in assay [12]. The log2FC in assay [13] was -0.48; in [14], -0.89; in [15] it was 0.46; in assay [16], -0.85; in [17] it was -0.66; in assay [18] it was -0.5.
For `CCCc1cc(C)[nH]c(=O)c1CNC(=O)c1cc(-c2ccnc(N3CCN(C)CC3)c2)cc2c1cnn2C(C)C`, the log2FC is 0.42 in assay [19]; 0.79 in assay [20]; 0.57 in [21]; -0.78 in assay [22]; -0.9 in assay [23]; 0.39 in [24]. Further, the log2FC in assay [25] is -0.48; in assay [26], -0.49; in assay [27], -0.53; in [28], -0.68; in assay [29], 0.45; in assay [30], 0.88.
